{"sequences": {"note": "Chains of the proteins cited; added tags and fusions are not shown.", "UniProt O75874, whole entry R132H, stated change not applied": "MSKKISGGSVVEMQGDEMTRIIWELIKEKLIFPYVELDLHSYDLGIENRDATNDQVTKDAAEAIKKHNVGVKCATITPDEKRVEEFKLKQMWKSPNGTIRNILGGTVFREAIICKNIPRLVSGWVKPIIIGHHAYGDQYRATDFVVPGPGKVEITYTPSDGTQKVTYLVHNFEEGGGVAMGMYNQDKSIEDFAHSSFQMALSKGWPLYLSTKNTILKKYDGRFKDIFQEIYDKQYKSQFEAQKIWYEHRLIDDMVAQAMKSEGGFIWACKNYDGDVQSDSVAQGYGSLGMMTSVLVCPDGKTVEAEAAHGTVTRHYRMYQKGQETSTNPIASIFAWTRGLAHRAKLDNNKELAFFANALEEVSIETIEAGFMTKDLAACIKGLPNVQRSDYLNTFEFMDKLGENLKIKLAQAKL", "UniProt O75874, whole entry, looked up, stated change not applied": "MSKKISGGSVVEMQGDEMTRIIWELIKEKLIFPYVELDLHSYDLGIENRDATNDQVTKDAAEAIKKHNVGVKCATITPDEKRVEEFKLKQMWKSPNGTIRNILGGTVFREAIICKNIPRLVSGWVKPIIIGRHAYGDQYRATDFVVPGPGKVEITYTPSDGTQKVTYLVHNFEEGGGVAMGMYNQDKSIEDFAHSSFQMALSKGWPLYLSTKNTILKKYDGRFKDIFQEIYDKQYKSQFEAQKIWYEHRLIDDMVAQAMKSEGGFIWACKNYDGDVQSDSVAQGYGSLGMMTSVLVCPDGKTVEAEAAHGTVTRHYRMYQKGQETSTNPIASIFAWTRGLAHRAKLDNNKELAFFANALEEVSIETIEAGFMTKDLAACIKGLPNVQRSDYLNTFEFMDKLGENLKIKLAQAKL"}, "source": "PubChem BioAssay AID624002", "about": "(National Center for Advancing Translational Sciences (NCATS), 2012)", "note": "The inconclusive results got no clear call from the source; some entries with a clear call stand among them for comparison. Where the call is inconclusive, the potency comes from a doubtful curve fit. Active and inactive are the calls of the source. The call rests on the fitted dose curve; in most records, active means well fitted inhibition curve with a large enough effect; inconclusive means small, poorly fitted or top-dose-only effect; inactive means no such curve, though single readings can be large or run the other way. Potency means the concentration at half of the fitted maximal effect."}
{"biological_target": "Isocitrate dehydrogenase [NADP] cytoplasmic (Homo sapiens) (UniProt O75874)", "experiment": "qHTS for Inhibitors of mutant isocitrate dehydrogenase 1 (IDH1): Confirmation of Cherrypicks; further: nearly all actives have a fitted effect of over 50% in size", "conditions": "IDH1 R132H enzyme, NADPH diaphorase/resazurin fluorescence; series mostly up to 76.6 µM; activity change, negative = inhibition: at the top concentration", "source_text": "Malignant glioblastomas (WHO grade IV), including primary and secondary glioblastomas, are among the most lethal with a median survival of one year, and unfortunately they are also the most prevalent type of brain tumors. By and large the standard of care of gliomas remains the use of the oral alkylating agent temozolomide and radiotherapy following surgical tumor resection. There is an urgent unmet medical need for novel therapeutics for gliomas. IDH mutations occur in up to 70% of grade II-IV secondary glioblastomas, and IDH1 R132H is the most prevalent mutation. […] Wild-type IDH1 catalyzes the conversion of isocitrate to -ketoglutarate with the concomitant reduction of NADP+ to NADPH. In contrast, IDH1 R132H catalyzes the conversion of -ketoglutarate to 2-hydroxyglutarate (2-HG) with the concomitant oxidation of NADPH to NADP+ [5]. Recently, a second significant advancement for the field was the finding that IDH is an oncogene, and that its metabolic product 2-HG may contribute to the pathogenesis of IDH-mutated cancers. […] Although this link to cancer is tantalizing, the direct evidence of how 2-HG drives pathogenesis of gliomas and AML remains a subject of further research. The goal of this screen is to find small-molecule inhibitors of IDH1 R132H using a biochemical assay that measures substrate NADPH consumption through the use of a diaphorase/resazurin-coupled system. Inhibition of the IDH1 R132H enzymatic reaction leads to an increase in the amount of NADPH relative to a DMSO control and a concomitant increase in the fluorescence of the diaphorase/resazurin enzyme product resorufin at 590 nm. Compounds were screened as a concentration-titration series that ranged from 76 microM to 0.15 uM. NIH Molecular Libraries Probe Production Network [MLPCN] NIH Chemical Genomics Center [NCGC] MLSCN Grant: R03 DA032129 PI Name: Dr. Lenny Dang\nEnzyme buffer was dispensed into black, solid 1536-well plates at 3 microL/well in 20 mM Tris buffer, pH 7.5, containing final concentrations of 10 mM MgCl2, 20 mM NaCl, 0.001% Tween20, 0.05% BSA, 2 mM beta-ME and 5.2 nM IDH1 R132H. Then, 23 nL of compounds or DMSO were delivered to each well using a pin tool. The inherent compound fluorescence was measured at this point at 590 nm on a ViewLux plate reader (Ex 525, Em 598, bodipy filter). The substrate buffer (3 uL; 20 mM Tris buffer, pH 7.5, containing final concentrations of 10 mM MgCl2, 20 mM NaCl, 0.001% Tween20, 0.05% BSA, 0.008 mM NADPH, and 1 mM a-ketoglutarate) was added to start the enzymatic reaction, and the plate was briefly spun at 270xg. After the reaction was allowed to progress for 80 minutes at room temperature, the remaining NADPH was detected with the diaphorase/resazurin-coupled system. Three microL of detection buffer (20 mM Tris buffer, pH 7.5, containing final concentrations of 10 mM MgCl2, 20 mM NaCl, 0.001% Tween20, 0.05% BSA, 0.53 uM diaphorase and 0.012 mM resazurin) was added, and after 5 minutes the fluorescence at 590 nm was measured on an Envision plate reader (Ex 544, Em 590, bodipy filter, 10 flashes). The %Activity was determined from the corrected fluorescence values. As no specific IDH1 R132H inhibitors have been identified in the literature, 1x (5.2 nM) and 0x IDH1 R132H enzyme controls (untreated) were included to normalize % Activity of identified inhibitors; 0x enzyme values corresponded to 100 % Activity (full inhibition), while 1x IDH1 R132H enzyme values were used to normalize 0 %A ctivity (no inhibition). Concentration-response curves were fitted to the signals arising from the resulting fluorescence. The concentration-response curves were then classified based on curve quality (r2), response magnitude and degree of measured activity, and compounds were subsequently categorized based on their curve class. […] Keywords: Isocitrate dehydrogenase, IDH1, IDH1 R132H, 2-HG, 2-hydroxyglutarate, AML, glioma, MLSMR, MLPCN, NIH Roadmap, qHTS, NCGC"}
{"smiles": "COc1cc([C@@H]2c3cc4c(cc3[C@@H](O)[C@H]3COC(=O)[C@H]23)OCO4)cc(OC)c1O[Si](C)(C)C(C)(C)C", "Potency": "inconclusive: 20 µM [inhibitor, full curve]"}
{"smiles": "O=C1CCSC2(C(=O)N(Cc3ccc(F)cc3)c3ccccc32)N1c1cccc(F)c1", "note": "(stereo not given)", "Potency": "inconclusive: 11.2 µM [inhibitor, full curve, poor fit]"}
{"smiles": "COc1ccc(Cl)cc1N(C(=O)c1ccco1)C(C(=O)NC1CCCC1)c1cccnc1", "note": "(stereo not given)", "Potency": "inconclusive: 35.5 µM [inhibitor, partial curve]"}
{"smiles": "Cc1cc(NC(=O)CCC(=O)N(c2ccccc2F)C(C(=O)NC2CCCC2)c2ccccc2)no1", "note": "(stereo not given)", "Potency": "active: 25.1 µM"}
{"smiles": "COc1ccc(Br)cc1/C=N/NC(=O)c1nc(-c2ccccc2)n2c1CCCCC2", "Potency": "inconclusive: 10 µM [inhibitor, full curve, poor fit]"}
{"smiles": "Cc1ccc(C(=O)N2CCc3ccccc32)o1", "activity change, negative = inhibition": "inactive: 2.73%"}
{"smiles": "COc1cc(-c2cc(C(=O)Nc3ccc(S(N)(=O)=O)cc3)c3ccccc3n2)cc(OC)c1OC", "Potency": "inconclusive: 28.2 µM [inhibitor, full curve]"}
{"smiles": "CCSc1nc2sc3c(c2c(=O)n1-c1ccc(C)cc1)CCN(C)C3", "Potency": "inconclusive: 44.7 µM [inhibitor, single point]"}
{"smiles": "COc1cc(OC)c(NC(=O)c2ccc3c(SCC(=O)O)c4c(nc3c2)CCCC4)cc1Cl", "Potency": "active: 28.2 µM"}
{"smiles": "CC(=O)N1CCN(c2ccccc2NC(=O)c2ccc(-c3cccc([N+](=O)[O-])c3)o2)CC1", "Potency": "inconclusive: 10 µM [inhibitor, full curve, poor fit]"}
{"smiles": "N#CC1=C2N=C(N)c3ccccc3N2C2=C(C(=O)CCC2)C1c1ccc(F)cc1", "note": "(stereo not given)", "Potency": "inconclusive: 50.1 µM [inhibitor, single point]"}
{"smiles": "Cc1ccc(N2C(S)=C(C#N)C(=O)NC2c2cccs2)cc1", "note": "(stereo not given)", "Potency": "inconclusive: 44.7 µM [inhibitor, single point]"}
{"smiles": "CCOC(=O)c1ccc(N2C(=O)c3n[nH]c(C)c3C2c2ccc(CC)cc2)cc1", "note": "(stereo not given)", "Potency": "inconclusive: 22.4 µM [inhibitor, full curve]"}
{"smiles": "Cc1c(CCC(C)C)c(-n2ccnc2C)n2c(nc3ccccc32)c1C#N", "Potency": "inconclusive: 22.4 µM [inhibitor, full curve]"}
{"smiles": "NNC(=O)CN1C(c2ccc(Cl)cc2)=Nc2ccc(Br)cc2C1c1ccccc1", "note": "(stereo not given)", "activity change, negative = inhibition": "inactive: -13.2%"}
{"smiles": "CN1CC=C2C(C#N)=C(N)C(C#N)(C#N)C(c3ccsc3)C2C1", "note": "(stereo not given)", "Potency": "inconclusive: 50.1 µM [inhibitor, partial curve]"}
{"smiles": "O=S(=O)(c1ccc(NC(=S)N/N=C/c2ccc(Oc3ccccc3)cc2)cc1)N1CCOCC1", "activity change, negative = inhibition": "inactive: -21.8%"}
{"smiles": "NNC(=O)CSc1c(-c2ccccc2)c2cc(Cl)ccc2[nH]c1=O", "activity change, negative = inhibition": "inactive: -24.9%"}
{"smiles": "Cc1cc(NC(=O)CCC(=O)N(c2cccnc2)C(C(=O)NC2CCCC2)c2ccccc2)no1", "note": "(stereo not given)", "Potency": "inconclusive: 39.8 µM [inhibitor, partial curve]"}
{"smiles": "NS(=O)(=O)c1ccc(N2N=C(c3ccc(Br)cc3)CC2c2ccc(F)cc2)cc1", "note": "(stereo not given)", "Potency": "inconclusive: 11.2 µM [inhibitor, full curve]"}
{"smiles": "COc1ccc(N(C(=O)c2snc(C(N)=O)c2N)C(C(=O)NC2CCCC2)c2ccc(F)cc2)c(OC)c1", "note": "(stereo not given)", "Potency": "inconclusive: 31.6 µM [inhibitor, partial curve]"}
{"smiles": "COc1ccc(N(C(=O)/C=C\\C(=O)Nc2ccc(Cl)cc2)C(C(=O)NCc2ccco2)c2ccc(C)cc2)cc1", "note": "(stereo not given)", "activity change, negative = inhibition": "inactive: -10.9%"}
{"smiles": "Brc1ccc(-c2csc(NNC3=NCCCCC3)n2)cc1", "Potency": "inconclusive: 44.7 µM [inhibitor, partial curve]"}
{"smiles": "CC(C)(C)c1ccc(S(=O)(=O)Nc2ccc(Cc3ccncc3)cc2)cc1", "Potency": "active: 20 µM"}
{"smiles": "CCc1ccc(-n2c(=O)c3c(C)c(C(=O)N(C)C)sc3n(Cc3cccc(C)c3)c2=O)cc1", "Potency": "active: 31.6 µM"}
{"smiles": "CC(C)=CCc1c2c(c3occ(-c4ccc(O)c(O)c4)c(=O)c3c1O)C=CC(C)(C)O2", "Potency": "active: 44.7 µM"}
{"smiles": "O=S(=O)(c1ccc(NC(=S)NN=Cc2ccccc2O)cc1)N1CCCCC1", "Potency": "active: 22.4 µM"}
{"smiles": "CC(=O)Oc1cc(O)c2c(c1)OC(c1ccc(OC(C)=O)c(OC(C)=O)c1)C(OC(C)=O)C2=O", "note": "(stereo not given)", "Potency": "inconclusive: 39.8 µM [inhibitor, partial curve]"}
{"smiles": "CCn1c(=O)c2cc(C(=O)N(C)c3ccccc3F)sc2c2ccccc21", "Potency": "active: 28.2 µM"}
{"smiles": "NNc1nnnc2c1sc1nc(N3CCOCC3)c3c(c12)CCCC3", "Potency": "inconclusive: 44.7 µM [inhibitor, partial curve]"}
{"smiles": "Cc1ccc(-n2nc3c(=O)n(CC(=O)NCC(C)c4ccccc4)nc(C)c3c2C)cc1", "note": "(stereo not given)", "activity change, negative = inhibition": "inactive: -1.3%"}
{"smiles": "O=c1c2ccccc2nc2n1CCC2", "activity change, negative = inhibition": "inactive: 2.6%"}
{"smiles": "CC(=O)Nc1ccc(C2=NNC(=NCC3CCCO3)SC2)cc1", "note": "(stereo not given)", "Potency": "active: 44.7 µM"}
{"smiles": "C[C@H]1CN([C@@H](C)CO)C(=O)c2cccc(NC(=O)Nc3ccc(C(F)(F)F)cc3)c2O[C@@H]1CN(C)S(=O)(=O)c1ccccc1", "Potency": "inconclusive: 25.1 µM [inhibitor, full curve]"}
{"smiles": "CC(C)(C)c1c(Cl)c(O)c(-c2ccccc2)c(=O)n1-c1ccccc1", "Potency": "inconclusive: 50.1 µM [inhibitor, single point]"}
{"smiles": "COc1ccc(-c2c(C)nc(N)nc2-c2ccc(OCc3ccc(C)cc3)cc2O)cc1OC", "Potency": "inconclusive: 8.91 µM [inhibitor, full curve]"}
{"smiles": "Cc1cc(=O)[nH]c(SCC(=O)Nc2ncc(S(=O)(=O)c3ccc([N+](=O)[O-])cc3)s2)n1", "activity change, negative = inhibition": "inactive: -17.1%"}
{"smiles": "Cn1c(COc2ccc(Cl)cc2)nc2ccccc2c1=O", "activity change, negative = inhibition": "inactive: -16.1%"}
{"smiles": "Cc1ccc(C(C(=O)NC2CCCCC2)N(Cc2ccccc2)C(=O)Cc2c[nH]c3ccccc23)o1", "note": "(stereo not given)", "Potency": "inconclusive: 14.1 µM [inhibitor, full curve]"}
{"smiles": "O=C(Nn1c(C2CCCCC2)nc2ccccc2c1=O)c1ccc([N+](=O)[O-])cc1", "activity change, negative = inhibition": "inactive: -29.9%"}
